These are yes or no findings as the source states them, for the method shown.

The target of experiment [1] is epidermal growth factor receptor ectodomain. Nature of the experiment: SPR, EGFR-ED flowed over immobilized P3378. Background: SPR reads the build-up and loss of mass on a sensor chip optically.
Experiment [2] has the same target. Nature of the experiment: SPR, EGFR-ED flowed over immobilized P3378 (500 RUs).
The target in experiment [3] is extracellular domain of the Type II TGF-beta receptor. Nature of the experiment: SPR, receptor extracellular domain flowed over immobilized P3378 (500 RUs).
The target of experiment [4] is epidermal growth factor receptor ectodomain. Nature of the experiment: SPR, EGFR-ED flowed over immobilized P3375.
Experiment [5] shares this target. Nature of the experiment: SPR, EGFR-ED flowed over immobilized P3375 (1200 RUs).
The target in experiment [6] is extracellular domain of the Type II TGF-beta receptor. Nature of the experiment: SPR, receptor extracellular domain flowed over immobilized P3375 (1200 RUs).

With HPLSKHPYWSQPSGSGC [P3378 synthetic peptide (… with C-terminal SGSGC extension)], the binding result in experiment [1] is given as “no binding (tested: about 5.6 µM)”; in experiment [2] it was “no binding (tested: 70 nM to 5.63 µM)”; in experiment [3], “no binding (tested: 38 nM to 4.5 µM)”.
Consider NTYWSQLLHFQTSGSGC [P3375 synthetic peptide (… with C-terminal SGSGC extension)], for which the binding result in experiment [4] was “no binding (tested: about 5.6 µM)”; in experiment [5], “no binding (tested: 70 nM to 5.63 µM)”; in experiment [6], “no binding (tested: 38 nM to 4.5 µM)”.

The values above are taken from patent US20120121507A1.
